Measured values reported in patent US9988358B2, “Phenazinium mediators” (Roche Diagnostics Operations, Inc., priority 2014, dated 2018).

Assay: Performance as redox mediator in glucose test strips with and without ascorbate
Details: for effect of ascorbate on measured currents: ascorbic acid 15 mg/dL (0.85 mM), 1.48 mM mediator; for slope of dose response: glucose 0-80 mg/dL, 1.48 mM redox mediator

SMILES | effect of ascorbate on measured currents | slope of dose response [nA*dL/mg]
CC[n+]1c2ccccc2nc2c(NC(=O)CCC(=O)O)cccc21 [1-(3-Carboxy-propionylamino)-5-ethyl-phenazinium] | only has a small effect on the currents | 34
CC[n+]1c2ccccc2nc2c(OCCCC(=O)O)cccc21 [1-(3-Carboxypropoxy)-5-ethylphenazinium, reference compound] | causes a current offset at low glucose concentrations | 16.7
